PubChem BioAssay AID652243 | Drosophila RNAi Screening Center, 2013
Test: 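Fly regulators of androgen-dependent reporter output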 (primary screen). Cells: Drosophila S2R+ cells. Knock-down reagent: long dsRNA against Drosophila genes. Timing: 72 h (48 h, then 24 h hormone). Conditions: synthetic androgen R1881 at 10 nM for 24 h. Measured: 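Per-well raw luminescence of the androgen-driven firefly reporter and of the Renilla control, two replicates each, without normalisation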. Reading the numbers: firefly reporter light: higher = more light from androgen-responsive reporter; Renilla control light: higher = more constitutive control signal (cell number, transfection). Call rule: 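Hit when the log firefly-to-Renilla ratio dropped or increased by a fixed fold versus the mean of GFP or LacZ controls across duplicate plates; lowering cut given as 1.5 and as 3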. Meaning of the calls: active = hit: reporter lowered or raised; inactive = no hit.
In all, the deposit lists about 24,000 reagents; this is a random part of those with a known target gene and a result. Over the whole deposit, 246 (1%) are marked active. 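Plates not normalised; calls are printed but the firefly/Renilla ratio behind them is not deposited; fold cut for lowering reported inconsistently.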 The raw values are shown without normalisation. Reagents against one gene are numbered here. Not given: the amount of reagent.

gene	reagent no.	firefly reporter light, replicate 1	firefly reporter light, replicate 2	Renilla control light, replicate 1	Renilla control light, replicate 2	Call
CG17075 (GeneID 33191)	1	9.62e5	9.12e5	4.39e6	1.99e6	inactive
CG17075 (GeneID 33191)	2	2.47e5	2.11e5	2.92e5	3.10e5	inactive
FASN3 (GeneID 3355111)	1	1.38e6	1.21e6	2.38e6	1.83e6	inactive
M7BP (GeneID 35698)	1	93707	1.05e5	2.20e5	2.72e5	inactive
M7BP (GeneID 35698)	2	73782	91863	2.82e5	1.89e5	inactive
M7BP (GeneID 35698)	3	7.03e5	3.80e5	9.52e5	1.08e6	inactive
M7BP (GeneID 35698)	4	2.49e5	2.39e5	1.79e6	1.76e6	inactive
M7BP (GeneID 35698)	5	3.03e5	2.85e5	2.48e6	2.00e6	inactive
M7BP (GeneID 35698)	6	3.11e5	2.98e5	4.52e5	3.56e5	inactive
mRpL44 (GeneID 40656)	1	37963	63351	3.00e5	2.94e5	inactive
mRpL44 (GeneID 40656)	2	2.82e5	2.89e5	7.58e5	6.93e5	inactive
lwr (GeneID 33226)	1	9.35e5	1.01e6	1.79e6	1.40e6	inactive
lwr (GeneID 33226)	2	4.48e5	2.51e5	5.27e5	3.59e5	inactive
CG32112 (GeneID 317860)	1	1.99e5	2.36e5	1.27e6	2.12e6	inactive
CG11068 (GeneID 32357)	1	3.97e5	2.25e5	3.20e6	3.43e6	inactive
ps (GeneID 44258)	1	1.02e5	60295	1.45e6	2.16e6	inactive
ps (GeneID 44258)	2	1.81e5	1.93e5	2.22e6	2.26e6	inactive
ps (GeneID 44258)	3	4.44e5	4.69e5	1.41e6	1.61e6	inactive
ps (GeneID 44258)	4	6.15e5	4.16e5	1.18e6	1.18e6	inactive
ps (GeneID 44258)	5	7.09e5	9.73e5	1.24e6	1.24e6	inactive
CG13984 (GeneID 33879)	1	2.88e5	2.26e5	1.67e6	1.13e6	inactive
lncRNA:CR33938 (GeneID 3772088)	1	7.86e5	8.59e5	2.46e6	1.48e6	inactive
lncRNA:CR33938 (GeneID 3772088)	2	7.45e5	6.41e5	1.71e6	1.72e6	inactive
CG7182 (GeneID 38944)	1	9.67e5	1.34e6	1.14e6	1.38e6	inactive
CG7182 (GeneID 38944)	2	8.82e5	8.51e5	8.87e5	1.33e6	inactive
CG14684 (GeneID 41281)	1	1.98e5	2.14e5	2.38e6	3.03e6	inactive
CG15517 (GeneID 43537)	1	1.74e5	1.48e5	1.92e6	2.48e6	inactive
CG31365 (GeneID 42736)	1	89448	1.14e5	1.16e6	1.27e6	inactive
Lkr (GeneID 38622)	1	79281	88221	9.83e5	8.82e5	inactive
Fdh (GeneID 41311)	1	26341	40088	3.40e5	6.09e5	inactive
CG5445 (GeneID 32722)	1	6.58e5	5.16e5	9.12e5	5.76e5	inactive
CG33116 (GeneID 326259)	1	1.05e6	9.71e5	1.21e6	1.37e6	inactive
CG33116 (GeneID 326259)	2	8.04e5	8.84e5	2.11e6	2.71e6	inactive
CG15572 (GeneID 31371)	1	1.14e6	7.63e5	8.96e5	7.11e5	inactive
Nepl19 (GeneID 43411)	1	4.14e5	5.30e5	2.23e6	3.78e6	inactive
CG5391 (GeneID 42611)	1	2.41e5	2.23e5	2.71e6	3.07e6	inactive
mRpL22 (GeneID 32662)	1	2.30e5	2.69e5	2.81e6	1.99e6	inactive
mRpL22 (GeneID 32662)	2	1.85e5	1.19e5	3.20e5	2.31e5	inactive
HisT (GeneID 35697)	1	28005	1.28e5	72672	1.89e5	inactive
HisT (GeneID 35697)	2	6.84e5	9.41e5	1.01e6	1.25e6	inactive
CG18473 (GeneID 41116)	1	68084	84092	1.72e6	1.55e6	inactive
CG5162 (GeneID 32709)	1	4.81e5	3.86e5	3.58e6	3.26e6	inactive
cv-c (GeneID 41749)	1	1.46e5	2.02e5	1.84e6	2.79e6	inactive
cv-c (GeneID 41749)	2	2.30e5	1.66e5	2.48e6	3.22e6	inactive
cv-c (GeneID 41749)	3	1.70e5	1.26e5	2.68e6	2.26e6	inactive
cv-c (GeneID 41749)	4	4.00e5	5.27e5	2.60e6	3.28e6	inactive
cv-c (GeneID 41749)	5	8.31e5	9.73e5	1.57e6	1.75e6	inactive
cv-c (GeneID 41749)	6	6.56e5	9.24e5	8.63e5	9.33e5	inactive
cv-c (GeneID 41749)	7	2.51e5	2.72e5	6.11e5	4.55e5	inactive
cv-c (GeneID 41749)	8	5.33e5	3.28e5	8.90e5	5.58e5	inactive
GstD10 (GeneID 59240)	1	1.29e5	1.55e5	2.35e6	2.83e6	inactive
GstD10 (GeneID 59240)	2	6.24e5	3.30e5	5.39e5	4.10e5	inactive
CG33766 (GeneID 3772380)	1	6.28e5	7.08e5	1.09e6	1.34e6	inactive
CG14718 (GeneID 41413)	1	53647	1.15e5	6.27e5	8.83e5	inactive
CG17658 (GeneID 37793)	1	1.74e5	1.65e5	1.18e6	1.22e6	inactive
CG13157 (GeneID 36355)	1	2.44e5	1.82e5	1.21e6	1.02e6	inactive
MsR1 (GeneID 38298)	1	62587	1.14e5	1.06e6	1.00e6	inactive
MsR1 (GeneID 38298)	2	3.38e5	1.96e5	5.91e5	3.94e5	inactive
